# According to article PMC4466796:
# Amino acid sequences for entries named in this document (tags omitted). A change or cut given only in a name is not applied to a line headed by its entry.
# UniProt P15056: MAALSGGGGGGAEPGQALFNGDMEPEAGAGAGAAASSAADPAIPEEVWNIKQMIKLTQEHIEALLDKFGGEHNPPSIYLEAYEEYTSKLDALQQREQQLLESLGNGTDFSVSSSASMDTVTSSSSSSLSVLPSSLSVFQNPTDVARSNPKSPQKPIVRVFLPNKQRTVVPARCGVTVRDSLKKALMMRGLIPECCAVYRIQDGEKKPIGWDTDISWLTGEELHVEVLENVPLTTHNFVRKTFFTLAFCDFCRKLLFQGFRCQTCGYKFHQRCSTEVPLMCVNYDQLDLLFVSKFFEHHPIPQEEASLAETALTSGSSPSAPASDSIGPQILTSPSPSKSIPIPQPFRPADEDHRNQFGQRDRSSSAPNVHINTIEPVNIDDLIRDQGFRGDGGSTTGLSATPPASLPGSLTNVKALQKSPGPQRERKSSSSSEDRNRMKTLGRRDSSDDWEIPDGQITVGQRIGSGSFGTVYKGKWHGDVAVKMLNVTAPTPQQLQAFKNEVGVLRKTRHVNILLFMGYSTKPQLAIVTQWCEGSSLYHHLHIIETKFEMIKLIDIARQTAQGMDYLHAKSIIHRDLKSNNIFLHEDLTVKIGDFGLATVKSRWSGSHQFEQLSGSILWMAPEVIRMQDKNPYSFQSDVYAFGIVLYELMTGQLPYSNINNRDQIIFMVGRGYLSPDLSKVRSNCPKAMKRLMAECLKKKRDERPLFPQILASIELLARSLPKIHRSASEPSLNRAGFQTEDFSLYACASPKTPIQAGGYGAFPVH
# No constants are given. Whether binding was seen depends on the method and setting. In cells and extracts the contact can be indirect. Sequences can lack the tags named with a protein.
# B1: Myc-EBR (domain or fragment, UniProt Q9UJM3 284-399)
# chain: PPRVPIPPRPVKPDYRRWSAEVTSSTYSDEDRPPKVPPREPLSPSNSRTPSPKSLPSYLNGVMPPTQSFAPDPKYVSSKALQRQNSEGSASKVPCILPIIENGKKVSSTHYYLLPE
# Key:
# [1] = molecular target: FLAG-BRAF WT (UniProt P15056); assay: co-IP; Cos-1 co-transfected with FLAG-BRAF WT or V600E and Myc-MIG-6 or Myc-EBR, serum starved (reproducible after FBS incubation); anti-FLAG IP; blots for Myc and pEGFR (Y1173)
# [2] = molecular target: FLAG-BRAF V600E (UniProt P15056); assay: as above
binder,measurement,setting,value
B1,binding,[1],no binding
same,binding,[2],no binding
